± gives the standard deviation of the averaged measurements. Most values lie at the floor of the assay. Slopes are relative: functional sequences can read slightly below zero.
Tested on: Saccharomyces cerevisiae PS128 hsf1 delta, HSF1(1-493) fusion
Assay: growth estimate (transactivation domain function in HSF1 fusion, heat-shock survival) (a.u. (slope of normalised read count over time)); higher = stronger growth at 37°C, i.e. more transactivation activity
Details: library: random library
Procedure: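 Random 60-nt DNA library encoding peptides of up to 20 aa, fused to the C-terminus of yeast HSF1 residues 1-493 (C-terminal TAD deleted) and expressed from the native HSF1 promoter on a CEN plasmid in hsf1-deleted S. cerevisiae PS128. Cells were selected at 37°C on -trp 5-FOA plates for 0, 2, 4, 6 and 8 days and amplicons were sequenced. Growth estimate is the slope of a robust linear fit of total-sum-normalised read counts (normalised to the first time point) over time, using at least 2 replicates. Sequences are classed functional (TAD activity) above a threshold of -0.13, set from stop-codon control sequences.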

Row | Substance | growth estimate
1 | SQLNAYHYVFASHPVPMCTA | < -0.25
2 | SGHVCRFPCLQNGQEEQARR | < -0.25
3 | TLSRRGRLSLAHC | < -0.25
4 | LSGKYYRKLC | < -0.25
5 | PRFK | < -0.25
6 | TSESGRYDRR | < -0.25
7 | VGIPTARSCHGIEWNKTGAA | < -0.25
8 | HAMIGRRV | < -0.25
9 | SVPACGVYTYDHNVRCSVSV | < -0.25
10 | TPGFRRSDR | < -0.25
11 | SRGAKPATRKIAQSATT | < -0.25
12 | SCRGSV | < -0.25
13 | LLTLPYVVQDRGNRRASAVE | < -0.25
14 | SLGSDPCDPQRMRGILRCTI | < -0.25
15 | VYK | < -0.25
16 | RNGMLTEAPPSFGWCGDTRV | < -0.25
17 | FLSTE | < -0.25
18 | LEFTLEGI | -0.246
19 | TLSYQIRQRPTRPLINTPPA | < -0.25
20 | LRVLHTPLWSIKIVPPYDAG | < -0.25
21 | EQGHLG | < -0.25
22 | QYACLSLTVRLSATTLGGKS | < -0.25
23 | IAGVSSGGTFAVQCSGSSAG | < -0.25
24 | DGDYDRFK | < -0.25

Copied from above, entries 14–20
Row | Substance | growth estimate
14 | SLGSDPCDPQRMRGILRCTI | < -0.25
15 | VYK | < -0.25
16 | RNGMLTEAPPSFGWCGDTRV | < -0.25
17 | FLSTE | < -0.25
18 | LEFTLEGI | -0.246
19 | TLSYQIRQRPTRPLINTPPA | < -0.25
20 | LRVLHTPLWSIKIVPPYDAG | < -0.25

A few values from the results shown:
FLSTE – growth estimate: < -0.25
TLSRRGRLSLAHC – growth estimate: < -0.25

(further entries)

Row | Substance | growth estimate
25 | FDYAHSR | < -0.25
26 | DEEDGATGL | < -0.25
27 | IVKTQAFMCERLAV | < -0.25
28 | IPKK | -0.246
29 | CTYGNYLVYIGVTAISYLYP | < -0.25
30 | RWGPTAWNRESYCVRSCGVF | < -0.25
31 | GRAGTLRLVLLP | < -0.25
32 | DCVPSVVNPSSADTNVCRPC | < -0.25
33 | KVHD | < -0.25
34 | RASMYRPCIYV | < -0.25
35 | LATSG | < -0.25
36 | VWACSVTFSGS | < -0.25
37 | LTHLQLGNSAWIKCRKSEAV | < -0.25
38 | LNLRMSRPGNVARAPSPLES | < -0.25
39 | SDPNETDDVGTPHRSSET | < -0.25
40 | NIRWPLYLCTGSHRTGPEQV | < -0.25
41 | TGRIVSSGFLVD | < -0.25
42 | SCANRALDK | < -0.25
43 | TPAMRYTGIQKPDRSLVSNT | < -0.25
44 | LYLKTGCRNGFRIARK | < -0.25
45 | GVLKDFRVVGSPNGSINGYS | < -0.25
46 | ESLRCSVCRTKEYYYSILDE | -0.0126
47 | RSLRFGLLNHWRIPKG | < -0.25
48 | LLGTTIDRWYMAPSNLDRAI | < -0.25

Row | Substance | growth estimate
49 | LSESY | < -0.25
50 | IVVANR | < -0.25
51 | YYLSRRWLEGGGTPRLTAGL | < -0.25
52 | LGSLKHS | < -0.25
53 | TTTEQLQ | < -0.25
54 | SEDRESQRNLRHIGHFKELN | < -0.25
55 | WPTWYTAVVSVTERRRDLHR | < -0.25
56 | YRELSITLRYSSKKMDSREY | < -0.25
57 | GCP | < -0.25
58 | IKITGGYGLIDPCVGRYCFS | < -0.25
59 | DKFILFG | < -0.25
60 | GILRGLRASVSRTGQLQWYD | < -0.25
61 | IRAADRFTCTTLTGRGGTPP | < -0.25
62 | LLHRLVTRWIRLQGVSD | < -0.25
63 | YSSSGSYIVRCVDFN | < -0.25
64 | SRIIKRIKHGCFKLNLFCAL | < -0.25
65 | RICKRVGVAS | < -0.25
66 | VCFTLPAMEFIS | < -0.25
67 | AWTRCKE | -0.0464
68 | YRSQCVVRILTECLAQPRRL | < -0.25
69 | IRLLGP | < -0.25
70 | RIPLGTSAIPGPVRL | < -0.25
71 | RPCRSSHLTQPF | < -0.25
72 | INLSLAVGQQTSQT | < -0.25

Row | Substance | growth estimate
73 | SDEDRLYRSA | < -0.25
74 | SRDGSTSCIIATPNARRSRA | < -0.25
75 | AVAENPEW | -0.246
76 | RTY | < -0.25
77 | MES | < -0.25
78 | ILMGALSPAAMVNVGGEWRS | < -0.25
79 | AHTVQKEGALRAVIAQSDRT | < -0.25
80 | VATANTYVFYSRLPCADAWF | < -0.25
81 | RRSYPAV | < -0.25
82 | CGLVTSVI | < -0.25
83 | TPRPSGLETGSLRQSQSLKF | < -0.25
84 | YSDSSGSKQARMEPPDSSQA | < -0.25
85 | RKSPAVSRPVLTDARSIGIP | < -0.25
86 | AGSDGFVRGNRKRFVTGGIC | < -0.25
87 | IGPENERLSQTGPLFLPTSH | < -0.25
88 | QRPCQELKIGRRKLMNRREI | < -0.25
89 | LIIGPRRERE | < -0.25
90 | TCGCTLHLGRTRKRSVHRAG | < -0.25
91 | GSAICVLDGRMVSSFLSSLA | < -0.25
92 | GQKAGVSSGEAEVVLQDYQC | < -0.25
93 | TQLGGLDYSLRTKGTHTIIG | < -0.25
94 | YKDSHQASRSSVGVGWSGAF | < -0.25
95 | TEG | < -0.25
96 | QSRH | < -0.25

Row | Substance | growth estimate
97 | RDRKSYSDLLTC | < -0.25
98 | GVVGSRERRITCGLCSVLI | < -0.25
99 | LVHDKHNPERRSSLTVDTDT | -0.245
100 | YNHSDSCRHDPHRLGGIDFS | -0.231
101 | YANSHDFGFSPRSLVIW | < -0.25
102 | MPANYPGGLYSSLQSVQCVA | < -0.25
103 | HLS | < -0.25
104 | RIMFCSPLWFLVLYHGSKSE | < -0.25
105 | FSKK | < -0.25
106 | EGGCWMLALSTQYDDVIFTL | < -0.25
107 | SVGYQA | < -0.25
108 | GGLSRDPDPRRYSNAFTIAI | < -0.25
109 | RHIQSRVISFKLRAFAV | < -0.25
110 | REIVFPNDNLAEYDYARSTH | < -0.25
111 | VDRLLVRVQVRIHGLCTFFE | < -0.25
112 | LSYYIWPQGATGVE | < -0.25
113 | KCCVSHTT | < -0.25
114 | NHP | < -0.25
115 | KRKYRPGIRYHERTGCGLRR | -0.246
116 | VARPAGLLRRYRGGCATQTN | < -0.25
117 | IIRKARGGAIAVPVDLSRNR | < -0.25
118 | RGNCLQDILDTSHVQN | < -0.25
119 | CTLLMFIFAFLQCSAVLVSP | < -0.25
120 | STRTNSLADIQGLQPRTSGI | < -0.25

Row | Substance | growth estimate
121 | FEIGERWIEHQPVILGIVLS | < -0.25
122 | SPFAASETYN | < -0.25
123 | QALGVFR | < -0.25
124 | MFPCVKPASGLLPVTTQKPL | < -0.25
125 | PCQALPGRSMTVQLGCDPGS | < -0.25
126 | SQIEYNVANLLPCRDWSFPN | < -0.25
127 | RGQWQCLPSAAIEFHSNEGP | < -0.25
128 | PHSDSDARRVLPYLTTAL | < -0.25
129 | SRYVSSIGADTIKSVVVQLS | < -0.25
130 | DIYWQNAKT | < -0.25
131 | IIRRAVRIRRLGVTPTAFQH | < -0.25
132 | TRQR | < -0.25
133 | KSNVGFSVITCVRPGYPAGL | < -0.25
134 | SPGTKPNGAKTKITLKPK | < -0.25
135 | RAAGVPTLIVLVHRLAFACV | < -0.25
136 | VPTASLEVPRRAGRN | < -0.25
137 | HRPRGGRGRG | < -0.25
138 | KSCLLCYVR | < -0.25
139 | VHSPTDMAW | < -0.25
140 | PQNFATMC | < -0.25
141 | RLLILF | < -0.25
142 | LETGQVTRYAYRLSGTVSYA | < -0.25
143 | QRDDNRWGIVPLEYAVCSPG | < -0.25
144 | LQMCD | < -0.25

Row | Substance | growth estimate
145 | IGSNFADHIASPLQRDHTVT | < -0.25
146 | RGW | < -0.25
147 | TVVVEHAQSLGGIRPV | < -0.25
148 | SREFICECRSSTLPAKETIT | < -0.25
149 | WLS | < -0.25
150 | LIRSSAGW | < -0.25
151 | HLLGIGERG | < -0.25
152 | LFRSERSEP | < -0.25
153 | YLDWAGRIIGRLPVAIRWFP | < -0.25
154 | MFENSREVLT | < -0.25
155 | SPR | -0.2486 ± 0.0024
156 | LVAPGDRGLLGGRPNLRGSA | < -0.25
157 | WTCK | < -0.25
158 | GANTEGCFPEPSRGLVLSDG | < -0.25
159 | LRRPGEPQESFCTVRFPHPN | < -0.25
160 | HRRLDQSPDLDAIRLGD | < -0.25
161 | RLGVCGEIGHQAGINSPIGV | < -0.25
162 | LETN | < -0.25
163 | LAGQWLFASMRLPGGKRGQP | < -0.25
164 | ADPCLQPSSAPESATTIVSR | < -0.25
165 | PSGFQSAEEPLGVTRNQRSS | < -0.25
166 | ITCWSSATHPYLLAMHRQFA | < -0.25
167 | TQYPCGKITSCLEKSVGSPA | < -0.25
168 | VIIRPSFIHGGMCRLGACTR | < -0.25

Row | Substance | growth estimate
169 | NHGFFSQI | < -0.25
170 | RVDSTYLECRYAGIPRPRLG | < -0.25
171 | VGARF | < -0.25
172 | RKPPDRSLKVVAIGSVSVRR | < -0.25
173 | IRCWCISIEMRKF | < -0.25
174 | QGCLFKRGWGANSYARADTS | < -0.25
175 | SGFPSETSRPVDLYVAPQRP | < -0.25
176 | SGHSFGKKTSLNSSWHPG | < -0.25
177 | WPHATRTR | < -0.25
178 | ELVIIRADPATLYVRDLPSR | < -0.25
179 | ALLVGIISAGKSLLGL | < -0.25
180 | DSGTILPL | < -0.25
181 | YGSARRIPTWDLFDLTHYLR | -0.215
182 | YWVNPCDKSSRISYMADSGP | < -0.25
183 | IRRTRVPSVTPTGVHRTWPR | < -0.25
184 | FILIVWLSKNADENRVMCQH | -0.181
185 | CQII | < -0.25
186 | GEGLNLMTTGKVRYGSNHVV | < -0.25
187 | SKCLFKSSAASRPPGISRSK | < -0.25
188 | GLSTRRDSTFTHVRCWSVMK | < -0.25
189 | AGRGVCRLFAASRLEYQPDV | < -0.25
190 | TTALRHSCAFGGKYPGSRWL | < -0.25
